Results are given in words; binding and its absence hold for the method and conditions named. Binding seen in cells or lysates may run through a third protein. Binding calls can cover weak binding; strength is not graded here.
Target: RIP-1 with C-terminal 3xFLAG tag (nematode)
Assay: co-purification on anti-FLAG affinity gel; RFS-1/RIP-1 expressed in budding yeast; cleared lysate applied to anti-FLAG affinity gel, beads extensively washed, eluted with 3xFLAG peptide

B1: RFS-1 (protein, UniProt P34348 1-245)
chain: MDPSENVFKYETAYDLLVRLGAERLFLRTCLSILDPVLELHPGKCYEIDGDLGVGKTQICYSFAAKFLQTKKTAKMGWIGATPLRTDHLLLHIEHFGNQTNEDILDRIVCKRVEKIAELQDSLTRFLDTINLQLVIVENIDAILHDTVYHKEMGRSMQSDVVERIRKLTKLEITVILTNHITHWRGYPAPALGAFWSSQINNRFFIEKRNDDSDIRIVSAMKGEQDDGMNRIEFKIGDRGLKAVE
binding: binds
